The target in the test is human epidermal growth factor receptor (human (endogenous in melanoma cells CRL-1872)) (UniProt P00533). Kind of test: ligand binding assay on fixed cells (biotinylated ligand, NeutrAvidin-HRP, ABTS, absorbance at 405 nm); formalin-fixed human melanoma cells in a 96-well plate; biotinylated peptide at 10, 50 and 500 nM in MEM with 0.1% BSA and 200 mM HEPES, 37 °C, 1 h; washes with cold PBS and 0.3 M NaCl; triplicates; only the binder purified.

No constants are given. Whether binding was seen depends on the method and setting. Some entries that bind do so weakly or less than the wild type.

Take NINECFSSPCENQGICQDEIDGYNCVCQPGFTGTHCESSMLNHVI (biotin (conjugated with NHS-biotin; sites not stated)) [Sh-EGFl-1 peptide (epidermal growth factor-like peptide from Stichopus horrens)]: the binding entry is recorded as “binds”.

Source of the values: article PMC9605497, “Potential of Epidermal Growth Factor-like Peptide from the Sea Cucumber Stichopus horrens to Increase the Growth of Human Cells: In Silico Molecular Docking Approach” (Marine Drugs, 2022).
